Results deposited as PubChem BioAssay AID1259308 (NCATS, 2017)
Shown is an unselected part of about 59,000 reagents. About 1,510 of them (2.6%) count as active. 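Calls use total luciferase alone and ignore viability, so some active siRNAs may act by altering cell number.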 Unmarked entries are inactive. The numbers tell different reagents against one gene apart. Further read-outs or replicates are left out here. No sequences are given here.

Test: 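Knock-downs that increase output of a recombinant reporter protein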 (primary screen)
Cell system: human HEK293 embryonic kidney cells stably expressing firefly luciferase (HEK-CMV-Luc2-Hygro)
Reagent: single siRNA against human genes, 0.8 pmol siRNA per well
Time to read-out: 72 h
Measured: 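Reporter luminescence and viable-cell signal on separate replicate plates, given as percent of non-targeting control and median/MAD z-scores, plus per-cell luciferase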
Reading the numbers: total luciferase, z-score: higher = more reporter protein produced
Call rule: 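An siRNA counts as active if its total luciferase robust z-score exceeds 3; genes with two or more such siRNAs out of three were retested with fresh siRNAs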
Meaning of the calls: active = raised luciferase; inactive = no rise

| gene | siRNA no. | total luciferase, z-score |
| --- | --- | --- |
| VPS13D (GeneID 55187) | 1 | -2.01 |
| VPS13D (GeneID 55187) | 2 | 0.79 |
| VPS13D (GeneID 55187) | 3 | -0.186 |
| ARHGAP28 (GeneID 79822) | 1 | 2.46 |
| ARHGAP28 (GeneID 79822) | 2 | -0.962 |
| ARHGAP28 (GeneID 79822) | 3 | -1.18 |
| KIZ (GeneID 55857) | 1 | 1.14 |
| KIZ (GeneID 55857) | 2 | -0.806 |
| KIZ (GeneID 55857) | 3 | 0.306 |
| NUTM2E (GeneID 283008) | 1 | 0.307 |
| NUTM2E (GeneID 283008) | 2 | 1.57 |
| NUTM2E (GeneID 283008) | 3 | 0.461 |
| RMDN2 (GeneID 151393) | 1 | -1.72 |
| RMDN2 (GeneID 151393) | 2 | -0.522 |
| RMDN2 (GeneID 151393) | 3 | -0.349 |
| RBBP9 (GeneID 10741) | 1 | 0.803 |
| RBBP9 (GeneID 10741) | 2 | 0.0394 |
| RBBP9 (GeneID 10741) | 3 | 0.64 |
| GAR1 (GeneID 54433) | 1 | -1.1 |
| GAR1 (GeneID 54433) | 2 | 2.63 |
| GAR1 (GeneID 54433) | 3 | -1.03 |
| LINC02389 (GeneID 400046) | 1 | -0.0593 |
| LINC02389 (GeneID 400046) | 2 | 0.262 |
| LINC02389 (GeneID 400046) | 3 | -1.37 |
| MGST3 (GeneID 4259) | 1 | -1.07 |
| MGST3 (GeneID 4259) | 2 | 0.278 |
| MGST3 (GeneID 4259) | 3 | -0.312 |

Entries above whose target name starts with A or a:
| gene | siRNA no. | total luciferase, z-score |
| --- | --- | --- |
| ARHGAP28 (GeneID 79822) | 1 | 2.46 |
| ARHGAP28 (GeneID 79822) | 2 | -0.962 |
| ARHGAP28 (GeneID 79822) | 3 | -1.18 |

Additional entries follow.
| gene | siRNA no. | total luciferase, z-score |
| --- | --- | --- |
| FYN (GeneID 2534) | 1 | -0.187 |
| FYN (GeneID 2534) | 2 | 0.0485 |
| FYN (GeneID 2534) | 3 | -0.7 |
| HEATR4 (GeneID 399671) | 1 | 0.862 |
| HEATR4 (GeneID 399671) | 2 | 0.625 |
| HEATR4 (GeneID 399671) | 3 | 1.53 |
| WNT2B (GeneID 7482) | 1 | -0.318 |
| WNT2B (GeneID 7482) | 2 | -0.427 |
| WNT2B (GeneID 7482) | 3 | 0.918 |
| LTBP2 (GeneID 4053) | 1 | -0.35 |
| LTBP2 (GeneID 4053) | 2 | -0.729 |
| LTBP2 (GeneID 4053) | 3 | -0.712 |
| PJA2 (GeneID 9867) | 1 | 0.992 |
| PJA2 (GeneID 9867) | 2 | 0.0368 |
| PJA2 (GeneID 9867) | 3 | -0.214 |
| NDUFS6 (GeneID 4726) | 1 | 1.47 |
| NDUFS6 (GeneID 4726) | 2 | 0.541 |
| NDUFS6 (GeneID 4726) | 3 | 0.843 |
| OR4D6 (GeneID 219983) | 1 | 0.914 |
| OR4D6 (GeneID 219983) | 2 | -1.01 |
| OR4D6 (GeneID 219983) | 3 | -0.399 |
| SLC22A14 (GeneID 9389) | 1 | 0.605 |
| SLC22A14 (GeneID 9389) | 2 | -0.31 |
| SLC22A14 (GeneID 9389) | 3 | 0.542 |
| RTF1 (GeneID 23168) | 1 | 1.32 |
| RTF1 (GeneID 23168) | 2 | 1.38 |
| RTF1 (GeneID 23168) | 3 | 0.95 |
| KCNA5 (GeneID 3741) | 1 | -0.239 |
| KCNA5 (GeneID 3741) | 2 | 2.1 |
| KCNA5 (GeneID 3741) | 3 | 1.46 |
